Measured values reported in paper PMC2413403.

Biological target: hamster Nkx2-2 (hamster)
Assay: co-IP; mPAC cells given AdCMV-Math6 with expression vectors for Neurog3, NeuroD1 or Nkx2-2; 500 ug lysate in coIP buffer (100 mM NaCl, 20 mM Tris-HCl pH 7.5, 1 mM EDTA, 1% Igepal CA-630, 5 mM NaF); immunoprecipitated with anti-FLAG, anti-Nkx2-2 or mouse IgG1 overnight at 4°C; protein G dynabeads; immunoblotted with anti-myc

binding: no binding
B1: Math6 (mouse atonal homolog 6) with an N-terminal c-myc tag (protein, UniProt Q99NA2 1-322)
chain: MKHIPVLEDGPWKTVCVKELNGLKKLKRKGKEPVRRANGYKTFRLDLEAPELGATVSTTAATNGLRDRTQPFPIATPVPASVAPAVPPGGGTDTAREFRGIRAPEVSDARKRGFALGTVGPGLPTPPPPPASQSLAPGDPEAHSFREQALRPRILLCAPPARPTQSAPLAPPAAPQESPVRPAPPTRPGESSYSSISHVIYNNHPDSSASPRKRPGEATAASTEIKALQQTRRLLANARERTRVHTISAAFEALRKQVPCYSYGQKLSKLAILRIACNYILSLARLADLDYSADHSNLSFSECVQRCTRTLQAEGRAKKRKE

Results are given in words; binding and its absence hold for the method and conditions named. In cells and extracts the contact can be indirect. Sequences can lack the tags named with a protein.
